Measurements from the supplement of paper PMC11006884.
Only a part is listed here, and it is no random draw.

The chains behind the UniProt entries cited, without tags or fusion partners. Where a name states a change or a piece, a line headed by the entry shows the natural chain unless it says otherwise.
UniProt Q29RF7: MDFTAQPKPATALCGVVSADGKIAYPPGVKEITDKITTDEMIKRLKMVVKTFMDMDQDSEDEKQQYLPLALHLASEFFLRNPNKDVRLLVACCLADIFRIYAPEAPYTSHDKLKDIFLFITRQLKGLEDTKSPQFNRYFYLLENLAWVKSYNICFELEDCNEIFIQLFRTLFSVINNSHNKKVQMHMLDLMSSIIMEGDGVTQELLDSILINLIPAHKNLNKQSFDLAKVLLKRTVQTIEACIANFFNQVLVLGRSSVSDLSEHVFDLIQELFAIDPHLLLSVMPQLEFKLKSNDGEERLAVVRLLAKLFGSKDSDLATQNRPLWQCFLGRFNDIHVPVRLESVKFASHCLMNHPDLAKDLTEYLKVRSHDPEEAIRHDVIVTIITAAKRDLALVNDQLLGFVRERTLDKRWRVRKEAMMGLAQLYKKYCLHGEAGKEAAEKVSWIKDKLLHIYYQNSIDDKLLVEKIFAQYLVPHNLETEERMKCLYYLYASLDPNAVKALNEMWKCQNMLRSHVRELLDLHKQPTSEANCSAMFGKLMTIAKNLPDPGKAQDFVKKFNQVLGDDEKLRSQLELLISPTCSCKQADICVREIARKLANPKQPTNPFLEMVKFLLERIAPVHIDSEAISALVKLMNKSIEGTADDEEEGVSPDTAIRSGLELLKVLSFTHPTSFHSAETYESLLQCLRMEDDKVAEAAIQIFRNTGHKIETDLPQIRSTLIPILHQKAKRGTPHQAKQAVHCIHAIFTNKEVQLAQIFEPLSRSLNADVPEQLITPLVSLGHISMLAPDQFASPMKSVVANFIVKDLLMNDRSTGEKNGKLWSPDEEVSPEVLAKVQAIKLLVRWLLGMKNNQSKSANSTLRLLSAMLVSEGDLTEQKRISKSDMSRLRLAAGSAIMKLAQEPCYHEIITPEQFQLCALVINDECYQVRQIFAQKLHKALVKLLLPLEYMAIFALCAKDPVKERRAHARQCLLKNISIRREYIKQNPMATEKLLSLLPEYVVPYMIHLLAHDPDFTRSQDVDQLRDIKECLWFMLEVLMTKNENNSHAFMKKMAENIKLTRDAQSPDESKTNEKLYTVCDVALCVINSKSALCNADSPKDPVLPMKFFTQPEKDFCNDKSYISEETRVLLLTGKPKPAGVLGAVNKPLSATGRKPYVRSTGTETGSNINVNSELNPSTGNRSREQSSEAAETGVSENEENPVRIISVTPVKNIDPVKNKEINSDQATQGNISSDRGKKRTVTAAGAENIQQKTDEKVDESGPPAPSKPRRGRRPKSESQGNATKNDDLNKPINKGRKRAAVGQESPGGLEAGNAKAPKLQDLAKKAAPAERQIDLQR
UniProt Q15365, whole entry, looked up: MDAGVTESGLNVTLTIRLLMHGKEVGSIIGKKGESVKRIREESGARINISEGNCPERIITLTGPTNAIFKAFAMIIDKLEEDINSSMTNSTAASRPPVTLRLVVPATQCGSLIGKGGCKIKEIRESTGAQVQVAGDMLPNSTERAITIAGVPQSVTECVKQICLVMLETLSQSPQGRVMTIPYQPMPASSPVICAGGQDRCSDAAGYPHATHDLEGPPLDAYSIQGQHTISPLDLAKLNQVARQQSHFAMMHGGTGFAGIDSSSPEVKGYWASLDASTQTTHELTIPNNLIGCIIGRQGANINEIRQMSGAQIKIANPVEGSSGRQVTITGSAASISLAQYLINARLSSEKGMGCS
UniProt Q15181: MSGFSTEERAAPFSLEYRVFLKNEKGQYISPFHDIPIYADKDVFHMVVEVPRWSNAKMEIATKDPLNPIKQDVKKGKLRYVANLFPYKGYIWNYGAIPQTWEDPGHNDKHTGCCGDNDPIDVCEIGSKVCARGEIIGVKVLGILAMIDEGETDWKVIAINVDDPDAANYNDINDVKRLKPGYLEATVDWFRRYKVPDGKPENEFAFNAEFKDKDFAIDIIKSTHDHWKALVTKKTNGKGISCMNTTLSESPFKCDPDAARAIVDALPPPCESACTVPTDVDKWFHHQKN
UniProt Q15102: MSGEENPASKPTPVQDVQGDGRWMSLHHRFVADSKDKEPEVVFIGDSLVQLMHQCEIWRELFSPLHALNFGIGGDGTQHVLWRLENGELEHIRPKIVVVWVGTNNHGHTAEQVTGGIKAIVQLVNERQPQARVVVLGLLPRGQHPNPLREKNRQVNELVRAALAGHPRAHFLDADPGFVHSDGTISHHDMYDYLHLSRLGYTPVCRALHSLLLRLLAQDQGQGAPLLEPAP
UniProt Q15631: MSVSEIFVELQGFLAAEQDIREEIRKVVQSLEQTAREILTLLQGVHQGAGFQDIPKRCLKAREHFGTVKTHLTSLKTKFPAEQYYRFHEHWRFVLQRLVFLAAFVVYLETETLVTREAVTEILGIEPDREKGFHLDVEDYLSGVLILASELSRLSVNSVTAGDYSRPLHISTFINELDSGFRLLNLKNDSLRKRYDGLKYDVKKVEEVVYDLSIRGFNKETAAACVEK
UniProt Q15643: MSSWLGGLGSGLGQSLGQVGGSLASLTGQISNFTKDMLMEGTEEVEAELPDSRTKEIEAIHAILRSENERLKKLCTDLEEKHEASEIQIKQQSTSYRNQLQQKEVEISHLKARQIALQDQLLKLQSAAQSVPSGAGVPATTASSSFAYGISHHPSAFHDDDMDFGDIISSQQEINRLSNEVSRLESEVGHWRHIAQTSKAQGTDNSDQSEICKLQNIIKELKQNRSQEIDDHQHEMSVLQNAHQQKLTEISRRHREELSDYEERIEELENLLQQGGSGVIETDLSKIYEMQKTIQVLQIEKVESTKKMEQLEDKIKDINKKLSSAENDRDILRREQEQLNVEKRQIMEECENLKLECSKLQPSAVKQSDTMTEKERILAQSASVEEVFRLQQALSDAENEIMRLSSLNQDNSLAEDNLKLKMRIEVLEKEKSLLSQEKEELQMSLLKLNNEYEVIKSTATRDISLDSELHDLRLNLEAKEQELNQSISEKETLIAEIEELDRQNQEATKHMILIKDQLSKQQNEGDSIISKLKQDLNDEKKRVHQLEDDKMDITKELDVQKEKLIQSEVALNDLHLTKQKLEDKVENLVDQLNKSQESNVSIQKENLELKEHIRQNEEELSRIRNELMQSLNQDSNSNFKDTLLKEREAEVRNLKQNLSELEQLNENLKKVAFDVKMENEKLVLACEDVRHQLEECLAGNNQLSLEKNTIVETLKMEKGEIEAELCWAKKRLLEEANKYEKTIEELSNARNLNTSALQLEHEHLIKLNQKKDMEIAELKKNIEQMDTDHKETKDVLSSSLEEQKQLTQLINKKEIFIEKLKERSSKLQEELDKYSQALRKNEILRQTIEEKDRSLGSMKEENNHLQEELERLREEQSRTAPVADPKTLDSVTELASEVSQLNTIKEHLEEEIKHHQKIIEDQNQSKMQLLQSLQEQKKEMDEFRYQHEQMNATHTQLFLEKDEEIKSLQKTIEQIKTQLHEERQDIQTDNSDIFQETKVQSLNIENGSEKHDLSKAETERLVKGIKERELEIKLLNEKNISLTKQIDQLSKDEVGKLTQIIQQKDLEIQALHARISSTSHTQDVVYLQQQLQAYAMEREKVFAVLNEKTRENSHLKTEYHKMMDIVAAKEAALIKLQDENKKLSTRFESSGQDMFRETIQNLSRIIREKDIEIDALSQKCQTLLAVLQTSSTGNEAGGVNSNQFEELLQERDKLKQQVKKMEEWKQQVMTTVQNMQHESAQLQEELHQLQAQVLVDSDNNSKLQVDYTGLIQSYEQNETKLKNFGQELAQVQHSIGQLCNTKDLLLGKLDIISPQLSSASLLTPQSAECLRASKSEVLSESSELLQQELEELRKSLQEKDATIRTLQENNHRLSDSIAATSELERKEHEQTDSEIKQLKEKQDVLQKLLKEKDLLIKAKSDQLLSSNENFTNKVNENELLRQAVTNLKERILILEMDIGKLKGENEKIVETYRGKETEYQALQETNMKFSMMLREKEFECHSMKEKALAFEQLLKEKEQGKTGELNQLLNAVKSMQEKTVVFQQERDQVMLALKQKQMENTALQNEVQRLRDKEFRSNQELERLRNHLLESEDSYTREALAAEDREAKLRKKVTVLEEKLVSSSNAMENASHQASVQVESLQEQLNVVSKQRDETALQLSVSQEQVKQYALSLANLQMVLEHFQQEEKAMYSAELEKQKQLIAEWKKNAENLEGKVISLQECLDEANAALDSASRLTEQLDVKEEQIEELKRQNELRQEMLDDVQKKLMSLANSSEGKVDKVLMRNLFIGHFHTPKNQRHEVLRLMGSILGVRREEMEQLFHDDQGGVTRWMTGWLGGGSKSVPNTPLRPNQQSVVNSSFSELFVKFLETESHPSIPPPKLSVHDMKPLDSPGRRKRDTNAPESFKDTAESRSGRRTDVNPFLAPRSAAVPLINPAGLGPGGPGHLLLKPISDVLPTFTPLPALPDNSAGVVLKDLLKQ
UniProt Q15398: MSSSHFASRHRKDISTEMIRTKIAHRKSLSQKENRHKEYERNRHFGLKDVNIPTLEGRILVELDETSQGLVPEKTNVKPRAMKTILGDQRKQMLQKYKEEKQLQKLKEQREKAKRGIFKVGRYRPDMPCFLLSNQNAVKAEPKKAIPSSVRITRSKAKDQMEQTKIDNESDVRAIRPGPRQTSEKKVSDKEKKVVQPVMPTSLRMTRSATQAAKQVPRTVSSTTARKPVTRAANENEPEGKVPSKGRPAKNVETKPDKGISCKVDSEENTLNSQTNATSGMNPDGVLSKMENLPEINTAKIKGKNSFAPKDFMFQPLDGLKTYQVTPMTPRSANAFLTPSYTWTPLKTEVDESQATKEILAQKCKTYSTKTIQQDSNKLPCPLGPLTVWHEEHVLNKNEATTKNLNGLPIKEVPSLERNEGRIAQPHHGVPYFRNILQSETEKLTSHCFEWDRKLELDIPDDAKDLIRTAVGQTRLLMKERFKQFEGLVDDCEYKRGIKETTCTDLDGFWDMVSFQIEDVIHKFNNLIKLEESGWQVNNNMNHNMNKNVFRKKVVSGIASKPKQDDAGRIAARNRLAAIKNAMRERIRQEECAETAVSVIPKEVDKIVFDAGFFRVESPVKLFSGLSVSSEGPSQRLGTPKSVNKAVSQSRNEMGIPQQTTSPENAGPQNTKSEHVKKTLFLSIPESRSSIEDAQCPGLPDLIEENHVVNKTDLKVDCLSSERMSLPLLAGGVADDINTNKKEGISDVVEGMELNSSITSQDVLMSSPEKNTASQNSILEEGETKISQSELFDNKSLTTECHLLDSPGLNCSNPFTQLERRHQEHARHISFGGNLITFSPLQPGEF
UniProt Q1KMD3: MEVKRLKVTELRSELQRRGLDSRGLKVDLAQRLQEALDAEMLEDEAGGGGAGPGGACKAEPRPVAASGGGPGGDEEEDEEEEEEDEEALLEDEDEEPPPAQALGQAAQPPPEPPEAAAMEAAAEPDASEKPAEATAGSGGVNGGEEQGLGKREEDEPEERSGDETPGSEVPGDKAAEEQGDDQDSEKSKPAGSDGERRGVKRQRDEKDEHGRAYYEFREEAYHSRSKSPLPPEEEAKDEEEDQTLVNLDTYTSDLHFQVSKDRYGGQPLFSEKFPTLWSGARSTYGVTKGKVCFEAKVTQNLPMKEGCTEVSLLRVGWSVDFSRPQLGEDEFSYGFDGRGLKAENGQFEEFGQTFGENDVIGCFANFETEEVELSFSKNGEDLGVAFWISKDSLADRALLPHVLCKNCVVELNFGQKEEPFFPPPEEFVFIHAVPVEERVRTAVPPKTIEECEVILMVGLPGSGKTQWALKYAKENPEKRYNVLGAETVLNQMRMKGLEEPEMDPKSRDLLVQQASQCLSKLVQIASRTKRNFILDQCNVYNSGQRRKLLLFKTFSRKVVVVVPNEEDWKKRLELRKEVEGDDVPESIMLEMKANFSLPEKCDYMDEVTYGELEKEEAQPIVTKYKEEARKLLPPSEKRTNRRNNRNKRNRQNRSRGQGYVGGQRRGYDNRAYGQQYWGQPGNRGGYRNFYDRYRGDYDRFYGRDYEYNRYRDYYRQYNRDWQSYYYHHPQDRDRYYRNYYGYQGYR
UniProt Q1ED39: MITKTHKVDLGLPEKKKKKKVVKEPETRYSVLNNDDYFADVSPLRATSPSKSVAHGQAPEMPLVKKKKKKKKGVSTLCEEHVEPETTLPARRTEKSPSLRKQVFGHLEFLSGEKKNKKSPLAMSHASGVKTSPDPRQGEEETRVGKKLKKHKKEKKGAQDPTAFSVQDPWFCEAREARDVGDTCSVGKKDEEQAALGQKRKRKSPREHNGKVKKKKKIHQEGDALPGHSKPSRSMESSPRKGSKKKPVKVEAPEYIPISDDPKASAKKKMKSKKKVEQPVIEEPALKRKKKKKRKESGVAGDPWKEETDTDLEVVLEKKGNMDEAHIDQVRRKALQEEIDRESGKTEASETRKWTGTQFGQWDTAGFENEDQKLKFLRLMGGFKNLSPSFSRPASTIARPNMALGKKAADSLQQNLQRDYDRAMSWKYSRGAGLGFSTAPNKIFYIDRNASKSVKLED

Compound: COC(=O)C#Cc1ccccc1 [methyl 3-phenylpropiolate]
Assay: log2 ratio of iodoacetamide-alkyne labeling of the cysteine site, DMSO over compound (competition); higher = stronger covalent engagement of the cysteine by the compound, active = 1 or more
Conditions: 500 µM; treatment time 1 h; system: HEK293T cell lysate
How it was run: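 Three replicates, each with duplicate channels, were prepared from HEK293T lysate (2 mg/mL) treated with vehicle or electrophile at 500 µM for 1 h at ambient temperature. Iodoacetamide alkyne was then applied for 1 h, and samples were clicked to sCIP-TMT reagents, pooled, trypsin-digested overnight at 37 °C, enriched on streptavidin, acid-eluted and analysed on Orbitrap Eclipse LC-MS/MS with FAIMS, with FragPipe quantification. The log2 competition ratio per cysteine is the mean control-channel divided by the mean compound-channel reporter intensity. Cysteines quantified in only one replicate were left out.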

**Q.** For SUZ12 C46 (UniProt Q15022), which “log2 ratio of iodoacetamide-alkyne labeling” value (“log2 ratio” for short) is on record?
**A.** Its value is inactive: 0.117.

**Q.** PDCD2 C125 (UniProt Q16342) was tested. Which “log2 ratio” value did it give?
**A.** The value was inactive: 0.149.

**Q.** With TBC1D10B C573 (UniProt Q4KMP7) as the target, how does the “log2 ratio” value read?
**A.** Its value is inactive: 0.531.

**Q.** PDS5A C583 (UniProt Q29RF7) was tested. Which “log2 ratio” value did it give?
**A.** Its value is inactive: 0.744.

**Q.** UniProt Q15365_C293 was tested. Which “log2 ratio” value did it give?
**A.** Its value is inactive: 0.11.

**Q.** Which “log2 ratio” value does the source give for C5orf22 C195 (UniProt Q49AR2) here?
**A.** Its value is inactive: 0.458.

**Q.** Which “log2 ratio” value does the source give for LLGL1 C697 (UniProt Q15334) here?
**A.** The value was inactive: 0.999.

**Q.** How did the “log2 ratio” value turn out when PPA1 C270 (UniProt Q15181) was run?
**A.** The value was inactive: 0.153.

**Q.** Which “log2 ratio” value does the source give for PDS5A C1084 (UniProt Q29RF7) here?
**A.** Its value is inactive: 0.189.

**Q.** With DPYSL2 C504 (UniProt Q16555) as the target, how does the “log2 ratio” value read?
**A.** The value was inactive: 0.19.

**Q.** Which “log2 ratio” value does the source give for PDS5A C327 (UniProt Q29RF7) here?
**A.** Its value is inactive: 0.448.

**Q.** With QRICH1 C701 (UniProt Q2TAL8) as the target, how does the “log2 ratio” value read?
**A.** Its value is inactive: 0.701.

**Q.** For PAFAH1B3 C205 (UniProt Q15102), which “log2 ratio” value is on record?
**A.** The value was inactive: 0.0931.

**Q.** Which “log2 ratio” value does the source give for UniProt Q15370_C89 here?
**A.** Its value is inactive: -0.341.

**Q.** SUZ12 C494 (UniProt Q15022) was tested. Which “log2 ratio” value did it give?
**A.** The value was inactive: -0.102.

**Q.** How did the “log2 ratio” value turn out when RRS1 C52 (UniProt Q15050) was run?
**A.** Its value is inactive: 0.186.

**Q.** For PDS5A C532 (UniProt Q29RF7), which “log2 ratio” value is on record?
**A.** The value was inactive: 0.537.

**Q.** With UniProt Q15631_C225 as the target, how does the “log2 ratio” value read?
**A.** Its value is inactive: 0.308.

**Q.** With UniProt Q16512_C602 as the target, how does the “log2 ratio” value read?
**A.** The value was inactive: 0.0536.

**Q.** How did the “log2 ratio” value turn out when TRIP11 C212 (UniProt Q15643) was run?
**A.** The value was inactive: 0.105.

**Q.** How did the “log2 ratio” value turn out when PCBP2 C118 (UniProt Q15366) was run?
**A.** The value was inactive: 0.925.

**Q.** With DLGAP5 C129 (UniProt Q15398) as the target, how does the “log2 ratio” value read?
**A.** Its value is active: 1.38.

**Q.** Which “log2 ratio” value does the source give for CCDC93 C282 (UniProt Q567U6) here?
**A.** Its value is inactive: 0.055.

**Q.** UniProt Q15365_C118 was tested. Which “log2 ratio” value did it give?
**A.** Its value is active: 1.72.

**Q.** How did the “log2 ratio” value turn out when UniProt Q16512_C317 was run?
**A.** Its value is inactive: 0.267.

**Q.** Which “log2 ratio” value does the source give for UniProt Q15365_C163 here?
**A.** The value was inactive: 0.0788.

**Q.** How did the “log2 ratio” value turn out when HNRNPUL2 C602 (UniProt Q1KMD3) was run?
**A.** The value was inactive: 0.302.

**Q.** With UniProt Q1ED39_C172 as the target, how does the “log2 ratio” value read?
**A.** The value was inactive: 0.712.

**Q.** Which “log2 ratio” value does the source give for LARS2 C167 (UniProt Q15031) here?
**A.** The value was inactive: -0.0977.

**Q.** How did the “log2 ratio” value turn out when CEP55 C462 (UniProt Q53EZ4) was run?
**A.** The value was inactive: 0.249.

**Q.** How did the “log2 ratio” value turn out when RBBP7 C277 (UniProt Q16576) was run?
**A.** The value was inactive: 0.408.

**Q.** How did the “log2 ratio” value turn out when SLC1A5 C363 (UniProt Q15758) was run?
**A.** Its value is inactive: 0.266.

**Q.** Which “log2 ratio” value does the source give for BAK1 C14 (UniProt Q16611) here?
**A.** The value was inactive: 0.498.

**Q.** With CDC37 C336 (UniProt Q16543) as the target, how does the “log2 ratio” value read?
**A.** The value was inactive: 0.0656.

**Q.** Which “log2 ratio” value does the source give for RBBP7 C166 (UniProt Q16576) here?
**A.** Its value is inactive: 0.269.

**Q.** For UniProt Q16625_C409, which “log2 ratio” value is on record?
**A.** The value was inactive: -0.0726.

**Q.** With IMMT C603 (UniProt Q16891) as the target, how does the “log2 ratio” value read?
**A.** The value was inactive: 0.416.

**Q.** With UniProt Q15042_C678 as the target, how does the “log2 ratio” value read?
**A.** Its value is inactive: 0.105.
